Taken from: PubChem BioAssay AID1508597 (Cure First, 2020)

Aim: 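Survival screen with siRNA in ovarian cancer cells derived from patients, with or without rucaparib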 (primary screen)
Cells: human ovarian carcinoma lines grown from tumours: OCI-P5x (papillary serous) and OCI-C5x (clear cell)
Knock-down reagent: siRNA pool against human genes, 1.25 pmol siRNA per well
Timing: 72 h or 96 h, depending on the cell culture
Conditions: rucaparib 20 µM (about IC30) or vehicle, present until read-out
Rucaparib or vehicle: Vehicle
Cell line: OCI-P5x (serous)
Detection: 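ATP luminescence measured at 72 or 96 h according to the culture, then normalised and expressed as percent viability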
Direction: viability, normalised: higher = more viable cells remaining
Hit rule: 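a well counts as a hit if its normalised viability is under 80 percent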
Calls: active = viability under 80%; inactive = viability 80% or more
Shown is an unselected part of the about 2,100 reagents, under one of the conditions tested. 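Calls flag viability under 80% in either arm, not effects specific to rucaparib; the reference for percent is not stated.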 Reagents against one gene are numbered here. Some reagents were tested in more than one well and are listed for each. The record does not give: the 100% reference.

| gene symbol | pool no. | technical replicate | viability, normalised (%) | Outcome |
| --- | --- | --- | --- | --- |
| IP6K3 (inositol hexakisphosphate kinase 3) | 1 | 1 | 93.3 | inactive |
| IP6K3 (inositol hexakisphosphate kinase 3) | 1 | 2 | 98.6 | inactive |
| IP6K3 (inositol hexakisphosphate kinase 3) | 1 | 3 | 83.4 | inactive |
| IP6K3 (inositol hexakisphosphate kinase 3) | 2 | 1 | 83.9 | inactive |
| IP6K3 (inositol hexakisphosphate kinase 3) | 2 | 2 | 62 | active |
| IP6K3 (inositol hexakisphosphate kinase 3) | 2 | 3 | 79.2 | active |
| POLG (DNA polymerase gamma, catalytic subunit) | 1 | 1 | 75.4 | active |
| POLG (DNA polymerase gamma, catalytic subunit) | 1 | 2 | 62.5 | active |
| POLG (DNA polymerase gamma, catalytic subunit) | 1 | 3 | 61.8 | active |
| WDR5 (WD repeat domain 5) | 1 | 1 | 56.7 | active |
| WDR5 (WD repeat domain 5) | 1 | 2 | 58.4 | active |
| WDR5 (WD repeat domain 5) | 1 | 3 | 57.9 | active |
| ROBO1 (roundabout guidance receptor 1) | 1 | 1 | 67.7 | active |
| ROBO1 (roundabout guidance receptor 1) | 1 | 2 | 80.6 | inactive |
| ROBO1 (roundabout guidance receptor 1) | 1 | 3 | 115 | inactive |
| PKN3 (protein kinase N3) | 1 | 1 | 59.8 | active |
| PKN3 (protein kinase N3) | 1 | 2 | 54 | active |
| PKN3 (protein kinase N3) | 1 | 3 | 53.5 | active |
| CHD5 (chromodomain helicase DNA binding protein 5) | 1 | 1 | 65.4 | active |
| CHD5 (chromodomain helicase DNA binding protein 5) | 1 | 2 | 77.9 | active |
| CHD5 (chromodomain helicase DNA binding protein 5) | 1 | 3 | 54.4 | active |
| CENPV (centromere protein V) | 1 | 1 | 95.8 | inactive |
| CENPV (centromere protein V) | 1 | 2 | 59.2 | active |
| CENPV (centromere protein V) | 1 | 3 | 99.9 | inactive |
| BACC1 (BPTF associated chromatin complex component 1) | 1 | 1 | 85.6 | inactive |
| BACC1 (BPTF associated chromatin complex component 1) | 1 | 1 | 61 | active |
| BACC1 (BPTF associated chromatin complex component 1) | 1 | 2 | 55.3 | active |
| BACC1 (BPTF associated chromatin complex component 1) | 1 | 2 | 77.7 | active |
| BACC1 (BPTF associated chromatin complex component 1) | 1 | 3 | 97.6 | inactive |
| BACC1 (BPTF associated chromatin complex component 1) | 1 | 3 | 63.4 | active |
| CDC7 (cell division cycle 7) | 1 | 1 | 102 | inactive |
| CDC7 (cell division cycle 7) | 1 | 2 | 89.8 | inactive |
| CDC7 (cell division cycle 7) | 1 | 3 | 108 | inactive |
| RPA1 (replication protein A1) | 1 | 1 | 60 | active |
| RPA1 (replication protein A1) | 1 | 1 | 49.9 | active |
| RPA1 (replication protein A1) | 1 | 2 | 64.5 | active |
| RPA1 (replication protein A1) | 1 | 2 | 50.1 | active |
| RPA1 (replication protein A1) | 1 | 3 | 41.6 | active |
| RPA1 (replication protein A1) | 1 | 3 | 49.1 | active |
| PI4KB (phosphatidylinositol 4-kinase beta) | 1 | 1 | 83.6 | inactive |
| PI4KB (phosphatidylinositol 4-kinase beta) | 1 | 2 | 70.1 | active |
| PI4KB (phosphatidylinositol 4-kinase beta) | 1 | 3 | 83.7 | inactive |
| PI4KB (phosphatidylinositol 4-kinase beta) | 2 | 1 | 54.6 | active |
| PI4KB (phosphatidylinositol 4-kinase beta) | 2 | 2 | 52.1 | active |
| PI4KB (phosphatidylinositol 4-kinase beta) | 2 | 3 | 48.3 | active |
| GINS1 (GINS complex subunit 1) | 1 | 1 | 54.1 | active |
| GINS1 (GINS complex subunit 1) | 1 | 2 | 64.9 | active |
| GINS1 (GINS complex subunit 1) | 1 | 3 | 68.7 | active |
| CBX8 (chromobox 8) | 1 | 1 | 81.5 | inactive |
| CBX8 (chromobox 8) | 1 | 2 | 86.8 | inactive |
| CBX8 (chromobox 8) | 1 | 3 | 74.3 | active |
| H4C3 (H4 clustered histone 3) | 1 | 1 | 60.1 | active |
| H4C3 (H4 clustered histone 3) | 1 | 2 | 67.4 | active |
| H4C3 (H4 clustered histone 3) | 1 | 3 | 65.5 | active |
| TRIM28 (tripartite motif containing 28) | 1 | 1 | 79.5 | active |
| TRIM28 (tripartite motif containing 28) | 1 | 1 | 70.8 | active |
| TRIM28 (tripartite motif containing 28) | 1 | 2 | 99.7 | inactive |
| TRIM28 (tripartite motif containing 28) | 1 | 2 | 87.4 | inactive |
| TRIM28 (tripartite motif containing 28) | 1 | 3 | 85.6 | inactive |
| TRIM28 (tripartite motif containing 28) | 1 | 3 | 69.5 | active |

Copied from the entries so far (9 entries):
| gene symbol | pool no. | technical replicate | viability, normalised (%) | Outcome |
| --- | --- | --- | --- | --- |
| GINS1 (GINS complex subunit 1) | 1 | 1 | 54.1 | active |
| GINS1 (GINS complex subunit 1) | 1 | 2 | 64.9 | active |
| GINS1 (GINS complex subunit 1) | 1 | 3 | 68.7 | active |
| CBX8 (chromobox 8) | 1 | 1 | 81.5 | inactive |
| CBX8 (chromobox 8) | 1 | 2 | 86.8 | inactive |
| CBX8 (chromobox 8) | 1 | 3 | 74.3 | active |
| H4C3 (H4 clustered histone 3) | 1 | 1 | 60.1 | active |
| H4C3 (H4 clustered histone 3) | 1 | 2 | 67.4 | active |
| H4C3 (H4 clustered histone 3) | 1 | 3 | 65.5 | active |
